# Earlier results, collected in patent publication US12121746B2, “Energy augmentation structures, energy emitters or energy collectors containing the same, and their use in methods and systems for treating cell proliferation disorders” (priority 2019, dated 2024).
# At least one compound was matched to its structure with a doubt left.
# Conditions: 652 nm light; clinical studies; cited from earlier work
structure (smiles),measurement,value
"Oc1cccc(-c2c3nc(c(-c4cccc(O)c4)c4ccc([nH]4)c(-c4cccc(O)c4)c4nc(c(-c5cccc(O)c5)c5ccc2[nH]5)CC4)C=C3)c1 [Foscan, Tetra (m-hydroxyphenyl) chlorin]",tissue effect,up to 10 mm
